Reference: patent US20260034253A1, “NECTIN-4 MINIPROTEIN CONJUGATES” (Aktis Oncology, Inc., priority 2022, published 2026)
These are yes or no findings as the source states them, for the method shown. Some results given as binding are weak or reduced against the parent protein; the word gives no strength.

T1: Murine Nectin-4 (mouse) (UniProt Q8R007)
T1 sequence: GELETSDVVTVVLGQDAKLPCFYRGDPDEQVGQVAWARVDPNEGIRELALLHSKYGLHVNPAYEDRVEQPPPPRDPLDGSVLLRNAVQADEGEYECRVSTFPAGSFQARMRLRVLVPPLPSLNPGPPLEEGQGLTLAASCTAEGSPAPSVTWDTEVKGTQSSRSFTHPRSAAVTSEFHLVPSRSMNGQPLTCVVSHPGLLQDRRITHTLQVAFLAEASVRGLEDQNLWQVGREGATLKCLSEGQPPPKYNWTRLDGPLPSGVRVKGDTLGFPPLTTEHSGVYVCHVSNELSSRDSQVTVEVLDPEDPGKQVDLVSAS

T2: Human Nectin-4 (human, UniProt Q96NY8 32-349, limits assumed)
T2 construct: Amine-coupled to the Biacore chip; also called target protein; ligand
T2 sequence: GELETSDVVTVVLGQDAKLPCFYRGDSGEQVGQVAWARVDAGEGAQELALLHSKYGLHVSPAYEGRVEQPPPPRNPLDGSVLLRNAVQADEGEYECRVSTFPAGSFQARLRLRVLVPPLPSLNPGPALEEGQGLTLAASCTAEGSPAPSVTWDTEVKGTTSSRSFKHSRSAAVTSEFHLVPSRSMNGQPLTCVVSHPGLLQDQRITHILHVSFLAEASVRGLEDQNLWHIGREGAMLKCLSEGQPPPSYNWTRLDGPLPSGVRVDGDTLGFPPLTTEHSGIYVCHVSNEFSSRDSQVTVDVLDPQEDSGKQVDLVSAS


Each binder was assayed against T1, Murine Nectin-4 (mouse) (assay: SPR (Biacore), Nectin-4 amine-coupled to the chip, compound as analyte, 25 deg C, fitted with a 1:1 binding model).

binding, binds:
CEYDEEFFAGLKRLRGGDICYYIKKKFDKVPDLCIEEILDKLGC (designed binder, N-terminus ACETYL; C-terminus OH; disulfides Cys1-Cys34, Cys20-Cys44) [C9]
CEYDEEFFAGLKRLRGGDICYYIKKKFDKVPDLCIEEILDKLGC (designed binder, N-terminus DOTA-PEG4; C-terminus OH; disulfides Cys1-Cys34, Cys20-Cys44) [C12]
CEYDEEFFAGLKRLRGGDICYYIKKKFDKVPDLCIEEILDKLGC (designed binder, N-terminus 138La-DOTA-PEG4; C-terminus OH; disulfides Cys1-Cys34, Cys20-Cys44) [C91]

Each binder was assayed against T2, Human Nectin-4 in the same assay as above.

binding, binds:
CEYDEEFFAGLKRLRGGDICYYIKKKFDKVPDLCIEEILDKLGC (designed binder, N-terminus ACETYL; C-terminus OH; disulfides Cys1-Cys34, Cys20-Cys44) [C9]
CEYDEEFFAGLKRLRGGDICYYIKKKFDKVPDLCIEEILDKLGC (designed binder, N-terminus DOTA-PEG4; C-terminus OH; disulfides Cys1-Cys34, Cys20-Cys44) [C12]
CEYDEEFFAGLKRLRGGDICYYIKKKFDKVPDLCIEEILDKLGC (designed binder, N-terminus 138La-DOTA-PEG4; C-terminus OH; disulfides Cys1-Cys34, Cys20-Cys44) [C91]
